According to patent US9481636B2, “N-benzylaniline derivative and uses thereof” (Nanjing Medical University, priority 2011, dated 2016):

Test system: OGD-injuried neurons (primary cortical neurons)
Assay: Cell viability assay: LDH release by OGD-injured primary cortical neurons
Format: cell-based, mice
Conditions: Mus musculus, Primary cortical neuron; drug concentration 10^−6 M/L; OGD 2 hours, LDH after 8 hours
Experimental: After primary neurons were cultured for 9 days, the medium was replaced by DMEM high glucose medium containing 1% FBS, serum-starved overnight and then washed twice with OGD culture solution. This OGD culture solution contains DMEM medium, 1% FBS, 1% penicillin/streptomycin and B27, and contains no sugar. Then, the primary neurons were incubated with the test drugs for 30 minutes, OGD culture solution was added into an anaerobic tank and oxygen-deprived for 2 hours. The OGD culture solution was discarded, and replaced by oxygen-saturated DMEM medium containing 1% FBS, 1% penicillin/streptomycin and B27. After 8 hours the culture solution was collected to measure LDH level.
After the primary cortical neurons were treated with various processes, neuronal culture solution in six-well plates was pipetted to a 1.5 mL plastic centrifuge tube; cells were washed three times with PBS solution and each well was added PBS 1000 μl. The cells were freezed and thawed repeated for three times, centrifuged at 12000′ g for 5 minutes at 4° C., and the supernatant was removed for use. The activity of LDH enzyme was determined with 50 μl culture solution and 25 μl supernatant using lactate dehydrogenase kit.
Protective Effects of the Objective Compounds Against Primary Cortical Neuronal Injury Cultured In Vitro (See Table 2)

For `COC(=O)c1ccc(NCc2cc(Cl)cc(Cl)c2O)cc1OCCC(=O)C1CC2CCC1(C)C2(C)C` (stereo not shown) [ZL006-33, methyl 2-(bornyl-2-carbonylethoxy)-4-(2-hydroxy-3,5-dichlorobenzyl)aminobenzoate], the inhibition at 1 µM was 29.9%.
